This is one part of the list. Shown are side measurements of this screen, not its main read-out; they come without a call. Compounds called inactive in the main read-out are mostly missing here. Potencies come from curve fits of mixed quality, noted in brackets.
Assay: qHTS Assay for Modulators of Lamin A Splicing
Conditions: HeLa LMNA splicing GFP/RFP minigene ratio, 48 h
Procedure, shortened: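 S3 HeLa cells stably expressing lamin A-EGFP splicing minigene plus DsRed2, 600 cells/well, 48 h compound exposure at 37C. Laser-scanning cytometry; analysed as GFP (500-530 nm)/RFP (575-640 nm) total intensity ratio; 0.5% DMSO vehicle.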

[1] = measured here: RFP viability control channel
[2] = measured here: GFP splicing reporter channel

O=C(COc1ccc(Cl)cc1)N1CCN(c2cccc(C(F)(F)F)c2)CC1
AC50 [1]: 11.2 µM [rising, partial curve, poor fit]

COc1cccc(C2C(C(N)=O)=C(C)Nc3nc(-c4ccccc4Cl)nn32)c1 (stereo unspecified)
AC50 [1]: 15.8 µM [rising, single point]

COc1ccc(C2C(=O)N(C3CCCCC3)CC(=O)N2Cc2ccc3c(c2)OCO3)cc1 (stereo unspecified)
AC50 [1]: 11.2 µM [rising, single point]

NC(=O)C1(N2CCCCC2)CCN(C(=S)Nc2ccc(F)cc2)CC1
AC50 [1]: 14.1 µM [rising, single point]

CCOc1ccc(CCNC(=O)COC(=O)c2cc(OC)c(OC)c(OC)c2)cc1OCC
AC50 [2]: 0.0355 µM [falling, full curve, poor fit]

COc1cccc(C(=O)NCC(=O)N2CCC(C)CC2)c1
AC50 [1]: 1.41 µM [falling, partial curve]

CC1(C)OC(=O)C(=C2CCCN2)C(=O)O1
AC50 [1]: 12.6 µM [falling, partial curve, poor fit]

Cc1cc(S(=O)(=O)Nc2ccc3c(c2)n(C)c(=O)n3C)ccc1F
AC50 [2]: 0.891 µM [falling, partial curve]

Cc1ccc(OCc2ccc(-c3nc(C#N)c(N4CCC(C)CC4)o3)o2)cc1
AC50 [2]: 0.0126 µM [rising, full curve, poor fit]

COc1ccc(-c2nc(SCc3ccccc3)n(S(C)(=O)=O)n2)cc1
AC50 [2]: 15.8 µM [rising, single point]
AC50 [1]: 17.8 µM [rising, single point]

CCCCOc1ccc(C(=O)Nc2cc(C)c(OCC(=O)N3CCOCC3)c(C)c2)cc1
AC50 [2]: 35.5 µM [rising, single point]
AC50 [1]: 35.5 µM [rising, single point]

c1ccc(N2CCN(Cc3ccnc4ccccc34)CC2)cc1
AC50 [1]: 15.8 µM [rising, single point]

Cc1nc2ccccc2n1CCCOc1ccccc1
AC50 [2]: 10 µM [rising, partial curve]
AC50 [1]: 12.6 µM [rising, partial curve]

Cc1ccc(CSc2nc3sc(C)c(C)c3c(=O)n2Cc2ccco2)cc1
AC50 [2]: 14.1 µM [falling, single point]
AC50 [1]: 22.4 µM [falling, single point]

COc1ccc(-n2c(SCCC#N)nnc2-c2cc(Cl)ccc2OC)cc1Cl
AC50 [2]: 35.5 µM [rising, single point]

COc1cccc(OC)c1C(=O)NNC(=O)c1ccc(F)cc1
AC50 [2]: 0.02 µM [rising, full curve, poor fit]

CCc1ccccc1NC(=O)C1CCN(C2=NS(=O)(=O)C(c3ccc(C)c(C)c3)=C2C)CC1
AC50 [2]: 0.112 µM [falling, partial curve]
AC50 [1]: 0.0501 µM [falling, full curve, poor fit]

O=C(c1ccco1)N1CCN(C(=O)N2c3ccccc3Sc3ccccc32)CC1
AC50 [1]: 0.0891 µM [rising, full curve, poor fit]

Oc1oc(-c2ccccc2)nc1/C=N/c1nccs1
AC50 [1]: 0.398 µM [rising, full curve, poor fit]

Cc1noc(/C=C/Nc2ccc(F)cc2F)c1[N+](=O)[O-]
AC50 [2]: 0.708 µM [rising, partial curve, poor fit]
AC50 [1]: 1.41 µM [rising, partial curve, poor fit]

Cc1ccc(-n2c(O)c(/C=N/Nc3ccc(S(=O)(=O)N4CCOCC4)cc3[N+](=O)[O-])c3ccccc3c2=O)c(C)c1
AC50 [1]: 17.8 µM [rising, partial curve]

O=C(Cn1cc([N+](=O)[O-])cn1)NCc1ccco1
AC50 [1]: 0.00316 µM [falling, full curve, poor fit]

CCCc1ccc(OCC(O)CN2CCN(c3ccccc3)CC2)cc1 (stereo unspecified)
AC50 [2]: 17.8 µM [rising, single point]

C[N+]1(C2CCC3CCCC2C3O)CCCCC1 (stereo unspecified)
AC50 [2]: 0.708 µM [rising, full curve]

O=C(O)CCCC(=O)Nc1nc(-c2ccc(F)cc2)cs1
AC50 [1]: 31.6 µM [rising, single point]

O=C(NCc1ccc2c(c1)OCO2)c1ccc(Cl)s1
AC50 [1]: 3.98 µM [rising, partial curve, poor fit]

CCCCn1c(-c2ccc(C)cc2)c(C)n2c3c(=O)n(C)c(=O)n(C)c3nc12
AC50 [1]: 0.794 µM [rising, full curve, poor fit]

O=S(=O)(NC1CCCC1)c1ccc(S(=O)(=O)N2CCc3ccccc32)cc1
AC50 [2]: 20 µM [rising, single point]
AC50 [1]: 20 µM [rising, single point]

O=C1/C(=C/c2cccs2)N=C(c2cccs2)N1Nc1ccccc1
AC50 [1]: 14.1 µM [rising, single point]

CCOC(=O)c1cc(-c2ccc(OC(F)F)cc2)nc2nc(SC)[nH]c(=O)c12
AC50 [1]: 0.501 µM [rising, full curve, poor fit]

CCCC(=O)O[C@@H]1C[C@@H](C)N(C(=O)c2ccccc2)c2ccc(C)cc21
AC50 [2]: 12.6 µM [rising, single point]

Nc1c(C(=O)NCCC2=CCCCC2)sc2ccc(S(=O)(=O)N3CCCCC3)cc12
AC50 [2]: 35.5 µM [rising, single point]
AC50 [1]: 35.5 µM [rising, single point]

CCOc1ccc(N(CC)C(=O)CSc2n[nH]c(-c3ccccc3)n2)cc1
AC50 [2]: 6.31 µM [rising, partial curve]

Cc1ccc(NC(NC(=O)c2ccccc2[N+](=O)[O-])C(Cl)(Cl)Cl)cc1 (stereo unspecified)
AC50 [1]: 20 µM [rising, partial curve, poor fit]

Cc1cc(C(=O)N/N=C/C=C/c2ccccc2[N+](=O)[O-])c(C)o1
AC50 [2]: 5.01 µM [rising, single point]

COc1cccc(CN(C)C(=O)c2cc(COc3c(F)cccc3F)on2)c1
AC50 [1]: 1.12 µM [falling, partial curve, poor fit]

COc1ccc(-c2cc(=O)n(-c3ccc([N+](=O)[O-])cc3)[nH]2)cc1
AC50 [2]: 35.5 µM [falling, single point]
AC50 [1]: 22.4 µM [rising, single point]

O=C(NC1CCCC1)c1ccc2c(c1)N(Cc1ccccc1F)C(=O)c1ccccc1S2
AC50 [2]: 1.41 µM [falling, full curve, poor fit]
AC50 [1]: 0.447 µM [falling, full curve]

Clc1cccc(-c2nnc(SCc3nc4ccccc4[nH]3)n2Cc2ccco2)c1
AC50 [1]: 7.94 µM [rising, partial curve]

Cc1cc(C)cc(N(CC(=O)Nc2cccc(C)n2)S(=O)(=O)c2c(C)noc2C)c1
AC50 [1]: 35.5 µM [rising, single point]

COc1ccc(N(CC(=O)Nc2cccc(C(F)(F)F)c2)S(C)(=O)=O)cc1
AC50 [1]: 12.6 µM [rising, single point]

Cc1cccc(NC(=S)N(CCN2CCOCC2)Cc2cc3cc4c(cc3[nH]c2=O)OCO4)c1
AC50 [1]: 5.01 µM [falling, full curve]

CCCCOc1ccc(-c2nonc2NC(=O)c2ccco2)cc1
AC50 [1]: 0.0126 µM [falling, full curve, poor fit]

Cc1ccc(OCC(=O)NCC2(N3CCN(C)CC3)CCCCC2)cc1C
AC50 [2]: 3.55 µM [falling, single point]
AC50 [1]: 6.31 µM [falling, single point]

O=C(CSc1cn(CCNC(=O)c2cccs2)c2ccccc12)NCc1ccccc1
AC50 [1]: 11.2 µM [rising, partial curve, poor fit]

Cc1csc(NC(=O)CSc2nsc(SCC(=O)Nc3nc(C)cs3)c2C#N)n1
AC50 [1]: 20 µM [rising, partial curve, poor fit]

Cc1ccccc1Cn1c(C)cc(C)c(C#N)c1=O
AC50 [1]: 0.1 µM [rising, full curve, poor fit]

COc1ccc(OC)c(/C=N/NC(=O)Cc2nc3ccccc3[nH]2)c1
AC50 [1]: 20 µM [rising, single point]

COc1ccc(CCNC(=O)C(=O)NCC2OCCN2S(=O)(=O)c2ccc(Br)cc2)cc1OC (stereo unspecified)
AC50 [2]: 3.98 µM [rising, full curve, poor fit]
AC50 [1]: 3.98 µM [rising, full curve]

CC(=O)c1cccc(OCC(=O)c2cc(C)n(-c3cc(C)on3)c2C)c1
AC50 [2]: 17.8 µM [rising, single point]
AC50 [1]: 15.8 µM [rising, partial curve]

O=C(COC(=O)c1ccccc1-c1ccccc1[N+](=O)[O-])c1ccccc1
AC50 [1]: 22.4 µM [rising, partial curve, poor fit]

Cc1cc(=O)[nH]c(SCCCOc2ccc3c(c2)CCC3)n1
AC50 [1]: 12.6 µM [rising, single point]

CCOC(=O)N1CCC(NC(=O)C2CCCN(Cc3nc(-c4cccc(Cl)c4)oc3C)C2)CC1 (stereo unspecified)
AC50 [1]: 35.5 µM [rising, single point]

Cc1cccc(N2CCN(C(=O)c3cc(S(=O)(=O)N(C)C)ccc3N3CCCC3)CC2)c1C
AC50 [2]: 11.2 µM [falling, single point]

CC(C)c1cccc(OCCCCN(C)C)c1
AC50 [1]: 0.0282 µM [falling, full curve, poor fit]

COc1cccc(-c2nc(NCc3ccco3)c3ccccc3n2)c1O
AC50 [1]: 11.2 µM [rising, partial curve]

Cc1ccc(-n2nnnc2SCC#N)cc1
AC50 [2]: 1.41 µM [falling, full curve, poor fit]

Cc1ccc(S(=O)(=O)NC(C(=O)Oc2ccc3c(C(F)(F)F)cc(=O)oc3c2)c2ccccc2)cc1 (stereo unspecified)
AC50 [1]: 25.1 µM [rising, single point]
